The values below come from patent US20140086829A1 (BIOREC S A, published 2014).

Results are given in words; binding and its absence hold for the method and conditions named. Some results given as binding are weak or reduced against the parent protein; the word gives no strength.

The assay concerns the target T1, human GST-VEGF (human, UniProt P15692-9 27-147).
T1 construct: also called GST-VEGF humano; not shown: GST fusion partner
T1 sequence (looked up): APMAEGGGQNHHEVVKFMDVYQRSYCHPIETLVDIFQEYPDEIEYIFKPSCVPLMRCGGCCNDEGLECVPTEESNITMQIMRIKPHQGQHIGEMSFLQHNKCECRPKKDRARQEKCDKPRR
Put plainly: competition ELISA on coated GST-VEGF with soluble scFv 2H1.

B1: phage displayed scFv clone L3H6 (scFv, V domains shown)
VH: QVQLVQSGAEVKKPGESLKISCKGSGYSFTSYWIGWVRQMPGKGLEWMGIIYPGDSDTRYSPSFQGQVTISADKSISTAYLQWSSLKASDTAMYYCARQGTHNRKIWGQGTMVTVSS
VL: QAVVTQEPSLTVSPGGTVTLTCASSTGAVTSGNYPNWFQQRPGQPPRALIYSTSNKHSWTPARFSGSLLGGKAALTLSGAQPEDEAEYYCRLSYDLARPVFGGGTKLTVLG
As for B1, the binding entry is reported as “binds”.
